Source: the supplement of paper PMC12889115
The other results are listed elsewhere or left out. These are raw signals, not scaled to a control.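 Primary screen: polymyxin B was added at a level permeabilizing Salmonella outer membranes while sparing inner membranes. DMSO wells, both with and without polymyxin B, established maximum growth. Plate-to-plate variation meant each plate was ranked on its own, and the lowest-OD600 compounds were selected as hits.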

Tested on: Salmonella enterica serovar Typhimurium SL1344
Assay: bacterial growth OD600 after 18 h with compound and polymyxin B; higher = more bacterial growth (less inhibition)
Conditions: 50 µM, Mueller-Hinton broth

SMILES	bacterial growth OD600 (polymyxin B 0.75 µg/mL)	bacterial growth OD600 (polymyxin B 1 µg/mL)
O=C1CCC(CCC(=O)N2CCCC(C(=O)c3ccccc3)C2)(Cc2ccccc2)N1 (stereo not given)	0.998	–
COC1CCN(c2ccc(-c3nc(COc4ccccc4)no3)cn2)CC1	–	0.898
C[C@@H]1CN(C(=O)c2csc3nc(-c4cccc(C(F)(F)F)c4)cn23)C[C@H](C)O1	–	1.25
CN1CCN([C@@H]2CCN(C3CCN(c4ccc5c(c4)CCC5)CC3)C[C@H]2O)CC1	0.867	–
Cc1cccc(CN2CCC(N3CCC(C(=O)N4CCCCC4)CC3)CC2)n1	–	1.03
COC1CCN(C(=O)CC(c2ccccc2)c2ccc(Cl)cc2)CC1 (stereo not given)	–	0.52
CCC(COC)NC(=O)CCc1nnc(CCc2ccccc2OC)o1 (stereo not given)	–	1.05
CN(C(=O)CCc1ccncc1)C1CCCN(CCc2ccccc2)C1 (stereo not given)	–	1.19
COc1ccccc1CCNC1CCN(c2ccc(NC(=O)CCc3ccccc3)cc2)CC1	0.833	–
O=C(CCC(F)(F)F)NC1CCCc2c1cnn2-c1cc(F)cc(F)c1 (stereo not given)	0.708	–
CC(CNC(=O)CCC1(Cc2ccc(Cl)cc2)CCC(=O)N1)c1ccccc1 (stereo not given)	0.866	–
Cc1ccccc1Cn1cc(C(=O)N(C)CCCC2CCCC2)nn1	–	0.794
Cc1ccsc1CN(C)C(=O)C1CCCN(C2CCN(C(=O)C3CC3)CC2)C1 (stereo not given)	–	0.958
Cc1ccccc1CCN1CCCC(CN(C)C(=O)c2ccccc2F)C1 (stereo not given)	–	0.806
O=C(c1cn[nH]c1)N1CCc2onc(C(c3ccccc3)c3ccccc3)c2C1	0.588	–
CCOC(=O)C1(CCOc2ccccc2)CCCN(Cc2nccn2CC)C1 (stereo not given)	0.007	–
COCCNC(=O)c1ccc(OC)cc1OC1CCN(Cc2ccccc2F)CC1	–	0.98
COC(=O)[C@H](Cc1ccccc1)NC1CCN(c2cccc(NC(=O)CC3CCCC3)c2)CC1	0.021	–
COc1ccc(-c2nn(-c3ccccc3C)cc2CN2CCCC(C(N)=O)C2)cc1F (stereo not given)	–	1.13
CN(c1ccc(-c2nc(Cc3ccc(F)cc3)no2)cn1)C1CCOCC1	0.011	–
CN(C(=O)C1CCCN(C2CCN(C(=O)C3CC3)CC2)C1)C1CCCCC1 (stereo not given)	0.912	–
COc1ccc2cc(C(C)NC(=O)Cn3nnnc3CN3CCCC3)ccc2c1 (stereo not given)	0.028	–
COc1ccc(C2(CC(=O)N3CCN(Cc4ccc(C)cc4)C(=O)C3)CC(=O)N(C3CC3)C2=O)cc1 (stereo not given)	0.75	–
COCCCN1C(=O)CC(CC(=O)NCC2(c3ccccc3)CC2(C)C)(c2ccccc2)C1=O (stereo not given)	0.754	–
COc1ccc(F)c(CC2(CCC(=O)N(C)Cc3ccc4nccnc4c3)CCC(=O)N2)c1 (stereo not given)	0.908	–
Oc1ccc(CN2CC[C@@H](N3CCN(CCc4ccccc4)CC3)[C@H](O)C2)cc1Cl	–	0.86
Cc1ccc2c(c1)CN(CCNC(=O)CCCc1cccs1)CC(C)O2 (stereo not given)	0.861	–
O=C(Cc1ccncc1)NCc1cccnc1Oc1ccccc1	–	0.913
CN(Cc1ccc2nccnc2c1)C(=O)CC1(c2ccccc2)CC(=O)N(CCc2ccccn2)C1=O (stereo not given)	0.718	–
CC(C)=CC(=O)N1CCCC(N2CCN(c3cccc(Cl)c3)CC2)C1 (stereo not given)	–	0.963
